In paper PMC6932917:
No constants are given. Whether binding was seen depends on the method and setting. Binding seen in cells or lysates may run through a third protein. Some binding calls cover weakened binding; strength is not graded here. Sequences can lack the tags named with a protein.

Amino acid sequences for entries named in this document (tags omitted).
UniProt P78527: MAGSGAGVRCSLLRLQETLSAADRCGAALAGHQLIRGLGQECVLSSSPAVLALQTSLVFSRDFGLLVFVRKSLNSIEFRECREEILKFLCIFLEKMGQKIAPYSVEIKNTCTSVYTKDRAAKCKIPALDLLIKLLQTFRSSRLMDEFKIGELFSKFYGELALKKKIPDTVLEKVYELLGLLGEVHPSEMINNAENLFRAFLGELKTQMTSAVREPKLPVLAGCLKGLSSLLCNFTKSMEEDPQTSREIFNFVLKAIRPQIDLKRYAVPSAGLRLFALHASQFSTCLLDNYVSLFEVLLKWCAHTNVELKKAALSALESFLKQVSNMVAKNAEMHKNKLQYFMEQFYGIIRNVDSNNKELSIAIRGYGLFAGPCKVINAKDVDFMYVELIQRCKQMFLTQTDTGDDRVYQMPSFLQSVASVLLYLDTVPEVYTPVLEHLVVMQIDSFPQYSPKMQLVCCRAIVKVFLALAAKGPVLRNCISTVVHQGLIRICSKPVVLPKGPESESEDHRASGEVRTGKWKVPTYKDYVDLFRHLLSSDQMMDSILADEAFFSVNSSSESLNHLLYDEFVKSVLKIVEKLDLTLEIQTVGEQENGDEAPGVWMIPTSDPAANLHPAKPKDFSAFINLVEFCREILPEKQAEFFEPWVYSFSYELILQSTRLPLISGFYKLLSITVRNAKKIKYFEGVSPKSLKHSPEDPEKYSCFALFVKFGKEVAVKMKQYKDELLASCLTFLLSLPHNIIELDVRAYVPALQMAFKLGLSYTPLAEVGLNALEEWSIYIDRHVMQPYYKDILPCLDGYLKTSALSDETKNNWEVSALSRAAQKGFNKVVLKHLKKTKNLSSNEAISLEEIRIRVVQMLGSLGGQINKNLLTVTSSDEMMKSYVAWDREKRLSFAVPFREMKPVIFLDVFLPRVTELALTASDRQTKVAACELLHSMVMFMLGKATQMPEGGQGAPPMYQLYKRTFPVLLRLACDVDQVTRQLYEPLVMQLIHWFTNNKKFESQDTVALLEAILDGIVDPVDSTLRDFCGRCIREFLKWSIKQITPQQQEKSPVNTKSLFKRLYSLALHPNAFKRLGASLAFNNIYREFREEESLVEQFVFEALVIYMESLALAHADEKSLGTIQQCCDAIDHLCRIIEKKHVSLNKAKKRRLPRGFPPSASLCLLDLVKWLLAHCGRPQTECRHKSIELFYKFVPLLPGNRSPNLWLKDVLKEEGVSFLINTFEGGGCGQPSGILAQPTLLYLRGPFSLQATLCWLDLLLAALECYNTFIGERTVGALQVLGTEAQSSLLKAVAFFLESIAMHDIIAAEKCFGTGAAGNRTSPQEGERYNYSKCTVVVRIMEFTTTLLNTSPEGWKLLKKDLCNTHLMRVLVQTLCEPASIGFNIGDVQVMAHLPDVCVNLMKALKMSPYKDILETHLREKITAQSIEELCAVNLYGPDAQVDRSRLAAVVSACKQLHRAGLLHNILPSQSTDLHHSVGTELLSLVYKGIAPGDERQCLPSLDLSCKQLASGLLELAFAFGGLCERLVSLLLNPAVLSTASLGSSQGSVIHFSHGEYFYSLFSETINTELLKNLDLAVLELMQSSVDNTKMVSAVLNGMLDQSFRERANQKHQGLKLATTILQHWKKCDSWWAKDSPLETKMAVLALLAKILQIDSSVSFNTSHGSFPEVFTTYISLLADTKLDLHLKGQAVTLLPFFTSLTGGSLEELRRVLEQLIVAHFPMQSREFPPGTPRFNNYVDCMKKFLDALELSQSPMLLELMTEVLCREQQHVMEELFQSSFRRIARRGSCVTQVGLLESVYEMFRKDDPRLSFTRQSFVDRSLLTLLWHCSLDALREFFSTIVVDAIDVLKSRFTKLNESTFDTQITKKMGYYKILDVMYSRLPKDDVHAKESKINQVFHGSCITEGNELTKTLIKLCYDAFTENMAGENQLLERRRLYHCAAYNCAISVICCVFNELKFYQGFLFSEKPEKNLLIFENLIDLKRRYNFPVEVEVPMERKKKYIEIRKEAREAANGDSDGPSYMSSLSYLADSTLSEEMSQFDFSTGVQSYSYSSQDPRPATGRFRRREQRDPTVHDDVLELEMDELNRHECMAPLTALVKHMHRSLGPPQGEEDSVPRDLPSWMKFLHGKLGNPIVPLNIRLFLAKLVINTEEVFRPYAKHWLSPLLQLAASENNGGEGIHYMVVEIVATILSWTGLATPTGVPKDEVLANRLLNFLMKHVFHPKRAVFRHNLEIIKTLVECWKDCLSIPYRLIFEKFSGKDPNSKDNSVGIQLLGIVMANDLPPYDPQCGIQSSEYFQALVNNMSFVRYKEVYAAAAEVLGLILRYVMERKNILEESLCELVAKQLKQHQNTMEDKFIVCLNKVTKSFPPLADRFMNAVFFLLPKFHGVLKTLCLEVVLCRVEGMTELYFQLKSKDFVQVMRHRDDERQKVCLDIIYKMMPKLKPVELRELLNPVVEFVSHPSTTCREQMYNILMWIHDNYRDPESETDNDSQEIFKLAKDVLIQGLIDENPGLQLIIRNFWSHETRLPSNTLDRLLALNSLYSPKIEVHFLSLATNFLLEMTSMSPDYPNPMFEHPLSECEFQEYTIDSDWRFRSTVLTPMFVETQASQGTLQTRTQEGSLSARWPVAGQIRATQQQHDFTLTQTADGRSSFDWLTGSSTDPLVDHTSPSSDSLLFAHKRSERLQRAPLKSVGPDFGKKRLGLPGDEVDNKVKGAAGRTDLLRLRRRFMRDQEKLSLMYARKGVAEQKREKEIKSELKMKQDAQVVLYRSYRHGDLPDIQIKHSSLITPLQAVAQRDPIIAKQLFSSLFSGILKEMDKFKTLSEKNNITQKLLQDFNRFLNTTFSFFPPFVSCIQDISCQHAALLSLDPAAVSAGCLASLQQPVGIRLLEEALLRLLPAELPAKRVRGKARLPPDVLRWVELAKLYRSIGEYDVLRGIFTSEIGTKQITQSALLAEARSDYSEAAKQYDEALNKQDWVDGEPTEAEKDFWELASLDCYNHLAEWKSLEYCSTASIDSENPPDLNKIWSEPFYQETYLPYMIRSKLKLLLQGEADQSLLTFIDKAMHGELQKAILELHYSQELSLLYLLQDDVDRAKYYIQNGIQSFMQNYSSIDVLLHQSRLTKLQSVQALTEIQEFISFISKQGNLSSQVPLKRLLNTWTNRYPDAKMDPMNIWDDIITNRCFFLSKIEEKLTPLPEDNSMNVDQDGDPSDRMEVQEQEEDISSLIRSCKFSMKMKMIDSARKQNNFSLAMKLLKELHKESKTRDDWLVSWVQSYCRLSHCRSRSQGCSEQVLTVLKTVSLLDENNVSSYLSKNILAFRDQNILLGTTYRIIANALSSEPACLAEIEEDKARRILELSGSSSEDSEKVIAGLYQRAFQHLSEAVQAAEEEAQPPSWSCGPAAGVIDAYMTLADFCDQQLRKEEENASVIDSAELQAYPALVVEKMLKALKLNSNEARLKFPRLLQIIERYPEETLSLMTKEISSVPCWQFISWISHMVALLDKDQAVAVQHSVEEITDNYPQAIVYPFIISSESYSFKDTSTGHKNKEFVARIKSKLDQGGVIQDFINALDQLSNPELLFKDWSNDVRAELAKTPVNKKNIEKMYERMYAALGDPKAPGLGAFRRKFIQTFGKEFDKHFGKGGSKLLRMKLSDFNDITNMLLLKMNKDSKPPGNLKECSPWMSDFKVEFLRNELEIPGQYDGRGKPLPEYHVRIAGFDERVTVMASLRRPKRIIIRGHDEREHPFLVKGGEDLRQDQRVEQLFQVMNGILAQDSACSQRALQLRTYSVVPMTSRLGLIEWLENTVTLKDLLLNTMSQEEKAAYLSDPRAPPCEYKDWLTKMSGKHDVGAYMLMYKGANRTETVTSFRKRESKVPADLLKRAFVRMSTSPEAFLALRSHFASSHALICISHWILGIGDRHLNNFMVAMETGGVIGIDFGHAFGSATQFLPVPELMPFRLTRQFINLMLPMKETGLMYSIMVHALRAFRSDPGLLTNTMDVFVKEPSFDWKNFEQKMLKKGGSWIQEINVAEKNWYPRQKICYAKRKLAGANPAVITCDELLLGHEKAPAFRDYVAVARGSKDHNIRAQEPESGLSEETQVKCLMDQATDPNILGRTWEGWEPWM

Target: T1, N-terminally 3xHA-tagged human RXFP3 (relaxin family peptide 3 receptor) (human) (UniProt Q9NSD7)
T1 sequence: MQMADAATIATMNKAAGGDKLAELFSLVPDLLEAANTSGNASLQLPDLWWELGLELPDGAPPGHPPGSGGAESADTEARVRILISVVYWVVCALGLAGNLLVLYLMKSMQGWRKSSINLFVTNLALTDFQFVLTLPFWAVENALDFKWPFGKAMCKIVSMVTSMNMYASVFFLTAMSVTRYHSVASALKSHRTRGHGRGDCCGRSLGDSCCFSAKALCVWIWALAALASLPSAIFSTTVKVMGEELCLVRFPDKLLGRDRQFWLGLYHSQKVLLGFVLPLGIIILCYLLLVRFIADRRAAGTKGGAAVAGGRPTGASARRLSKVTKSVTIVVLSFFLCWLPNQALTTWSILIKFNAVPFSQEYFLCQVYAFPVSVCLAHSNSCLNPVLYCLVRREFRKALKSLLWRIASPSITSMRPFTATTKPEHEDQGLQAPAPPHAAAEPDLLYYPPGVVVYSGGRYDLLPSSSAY
Assay: co-IP; anti-HA affinity beads, eluted in Laemmli buffer, immunoblot

Substance: activated PRKDC (pPRKDC) (from UniProt P78527 1-4128)
- binding: binds
